This is a selection; strong and weak results do not stand in their true shares. For some of these results: At the low end of the ranking the order means little. The list shows a part of the results. For some of these results: The exact form of the protein is not confirmed.
Key:
Test in all cases: DAPPL (digital affinity profiling via proximity ligation, sequencing)
Details in all cases: 10 mM Tris-HCl pH 7.5, 50 mM NaCl, 1 mM DTT, 4% glycerol, room temperature, 30 min; GST-TFs on glutathione beads, 16-mer random dsDNA library, 0.1% …; high values mean tight binding; double strand, one strand shown; scale: fold enrichment (6-mer frequency, TF over GST control)
[1] = molecular target: T1, ERG (UniProt P11308)
T1 sequence: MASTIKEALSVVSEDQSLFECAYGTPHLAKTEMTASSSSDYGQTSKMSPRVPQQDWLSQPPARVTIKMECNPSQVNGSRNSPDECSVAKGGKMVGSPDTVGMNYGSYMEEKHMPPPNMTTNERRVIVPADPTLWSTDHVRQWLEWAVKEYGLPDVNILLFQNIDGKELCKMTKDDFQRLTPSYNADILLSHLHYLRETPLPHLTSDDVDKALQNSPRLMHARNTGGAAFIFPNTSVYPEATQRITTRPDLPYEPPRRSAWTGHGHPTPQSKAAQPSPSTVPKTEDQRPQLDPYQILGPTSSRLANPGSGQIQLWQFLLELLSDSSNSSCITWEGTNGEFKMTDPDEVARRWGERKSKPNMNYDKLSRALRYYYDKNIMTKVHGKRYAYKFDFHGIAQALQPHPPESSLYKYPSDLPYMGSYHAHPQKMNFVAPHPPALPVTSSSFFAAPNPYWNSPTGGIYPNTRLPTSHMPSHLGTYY

Chains of the proteins cited; added tags and fusions are not shown. Lines headed by an entry give the natural chain unless they say otherwise; changes in a name come on top.
UniProt P32519: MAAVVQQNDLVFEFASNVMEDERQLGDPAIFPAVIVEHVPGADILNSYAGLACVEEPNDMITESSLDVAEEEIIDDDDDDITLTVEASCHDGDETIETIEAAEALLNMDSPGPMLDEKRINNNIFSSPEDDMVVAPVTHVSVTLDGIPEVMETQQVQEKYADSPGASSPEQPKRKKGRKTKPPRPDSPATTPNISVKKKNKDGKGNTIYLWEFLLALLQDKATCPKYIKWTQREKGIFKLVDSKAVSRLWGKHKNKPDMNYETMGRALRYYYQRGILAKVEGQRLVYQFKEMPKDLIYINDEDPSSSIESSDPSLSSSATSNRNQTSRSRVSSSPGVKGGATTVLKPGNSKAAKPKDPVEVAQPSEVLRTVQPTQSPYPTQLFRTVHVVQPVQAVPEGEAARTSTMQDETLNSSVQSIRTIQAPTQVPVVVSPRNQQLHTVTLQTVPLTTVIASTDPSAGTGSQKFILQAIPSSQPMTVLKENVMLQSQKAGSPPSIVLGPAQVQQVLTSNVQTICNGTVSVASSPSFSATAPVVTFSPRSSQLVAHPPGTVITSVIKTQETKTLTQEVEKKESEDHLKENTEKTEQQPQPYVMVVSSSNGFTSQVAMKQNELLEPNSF

[2] = molecular target: ELF1 (UniProt P32519)
[3] = molecular target: T2, ETV4 (UniProt P43268)
T2 sequence: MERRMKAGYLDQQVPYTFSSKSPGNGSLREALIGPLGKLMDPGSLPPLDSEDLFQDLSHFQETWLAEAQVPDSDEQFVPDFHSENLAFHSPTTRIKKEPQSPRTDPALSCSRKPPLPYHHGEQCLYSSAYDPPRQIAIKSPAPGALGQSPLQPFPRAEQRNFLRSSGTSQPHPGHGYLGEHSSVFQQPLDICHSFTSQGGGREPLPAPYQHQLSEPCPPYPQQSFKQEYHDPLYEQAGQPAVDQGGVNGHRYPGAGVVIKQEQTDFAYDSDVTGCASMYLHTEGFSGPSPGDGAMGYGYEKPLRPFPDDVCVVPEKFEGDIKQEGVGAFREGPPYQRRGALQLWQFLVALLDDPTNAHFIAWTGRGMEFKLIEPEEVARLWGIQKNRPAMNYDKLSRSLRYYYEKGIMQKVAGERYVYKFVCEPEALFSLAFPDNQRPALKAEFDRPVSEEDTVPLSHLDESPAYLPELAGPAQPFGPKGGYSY

[4] = molecular target: T3, ERF (UniProt P50548)
T3 sequence: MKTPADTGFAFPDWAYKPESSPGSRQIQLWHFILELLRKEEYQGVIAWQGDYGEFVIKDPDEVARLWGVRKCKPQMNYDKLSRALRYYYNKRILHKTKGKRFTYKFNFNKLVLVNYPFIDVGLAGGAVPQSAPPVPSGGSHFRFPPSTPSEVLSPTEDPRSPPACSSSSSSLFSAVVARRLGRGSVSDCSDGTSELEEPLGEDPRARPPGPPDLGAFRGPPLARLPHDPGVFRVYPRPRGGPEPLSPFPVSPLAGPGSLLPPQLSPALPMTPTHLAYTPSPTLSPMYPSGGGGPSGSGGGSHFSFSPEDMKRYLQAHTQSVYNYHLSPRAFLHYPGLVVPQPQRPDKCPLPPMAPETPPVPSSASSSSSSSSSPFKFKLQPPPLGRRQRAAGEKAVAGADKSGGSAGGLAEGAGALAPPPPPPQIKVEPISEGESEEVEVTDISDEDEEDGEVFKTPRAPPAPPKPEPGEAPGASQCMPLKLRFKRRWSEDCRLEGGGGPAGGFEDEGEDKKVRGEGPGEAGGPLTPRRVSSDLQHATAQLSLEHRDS

Sequence	binding signal [1]	binding signal [2]	binding signal [3]	binding signal [4]
GTTTGT	0.926	0.963	0.929	
CAAGCT	0.995	0.999	1.01	0.978
GTCCGC	1.04	0.977	1.02	0.954
CATTAA	0.963		1.03	1.1
TCGTTG	0.883	0.925	1	1.03
ACGCGG	0.987	1.03	0.993	0.873
GGACTC	0.971		1.05	0.984
CACGCA	0.946		1.09	0.993
GAAGCC	1.08	0.947	1.05	0.933
CAATGT	1.02	0.985	0.978	1.05
TTGCAA	1.08	1.18	1.09	
CCCCTA	1.05	1.18	1.12	1.04
AGCGGC	0.946	0.967	0.875	0.921
ATTTAG	1.02	1.15	1.09	
CAGCCT	0.995	1.06	1.06	
CCTGCG	1.27	1.38	1.4	1.22
TACCGG	1.77	1.53	1.64	
CGTAAA	1.13	1.07	1.11	
GTCTAT	0.998		1.06	1.14
TGCATC	1.43		1.47	1.4
TCCGCG	1.41	1.2	1.21	1.22
GAGCTC	0.808	0.946	0.898	0.931
CCCGAA	1.18	1.39	1.3	1.48
TTGCTT	1.3		1.21	1.18
TAGATA	0.962	1.06	1.02	0.968
GTAACC	0.984		1.1	1.11

Part of the list above, as comma-separated lines:
Sequence,binding signal [1],binding signal [2],binding signal [3],binding signal [4]
GAGCTC,0.808,0.946,0.898,0.931
CCCGAA,1.18,1.39,1.3,1.48
TTGCTT,1.3,,1.21,1.18

(list continues)

Sequence	binding signal [1]	binding signal [2]	binding signal [3]	binding signal [4]
CACACA	1.15	1.16	1.15	1.16
TGGTGC	1.16	0.989	0.986	1.11
AGCGTC	1.1	0.996	1.02	
AGCTGA	0.957	1.1	0.92	0.967
TGAACG	0.878		0.951	0.931
GTTGCC	0.931	0.894	0.883	0.874
TACAAA	1.08	1.14	1.16	1.1
TCAGCC	0.97	0.988	1.11	0.923
CCTAGG	1	1.07	0.952	0.908
TCATAA	0.953		0.96	0.977
ACCGGC	1.13		1.07	0.992
TGGTCA	1.06	0.983	0.951	0.986
TAAGCC	1.13	1.16	1.08	1.15
CCGGCT	1.74	1.68	1.66	
CTGGTA	1.4	1.38	1.35	
CTATTA	1.07	1.09	1.04	
CGATGC	1.08	1.02	1.06	
TGTTGC	1.3	1.31	1.33	
TGCCCC	1.28	1.27	1.36	
GCGCGC	0.935	0.948	1.05	
CACAAG	1.09	1.18	1.08	
CCGCCG	1.37	1.26	1.3	
TTTGTA	1.53	1.56	1.56	
TCGATG	1.06	1.11	1.1	
TCATCG	0.998	1.01	1.07	
ACCTTG	1.1	1.21	1.29	

Sequence	binding signal [1]	binding signal [2]	binding signal [3]	binding signal [4]
CCGCAA	1.28	1.31	1.33	
ATGCGT	0.989	0.969	1.04	
TCTGGC	1.27	1.14	1.18	
GGTCTG	0.973	0.963	1	
TGCCCA	1.14	1.16	1.2	
CTTCAC	1.45	1.45	1.41	
CCACAA	1.09	1.21	1.18	
TACAAT	1.29	1.3	1.32	
GTATCT	1.14	1.18	1.1	
TTCAAC	1.26	1.33	1.22	
ATGATG	1.18	1.36	1.4	
CCCCCC	1.07	1.08	1.15	
TGTGGT	1.07	1.01	1.02	
TTGAGG	1.06	1.08	1.16	
GAAGTG	1.87	1.52	1.73	
ATTTTA	1.29	1.29	1.31	
TCACGG	1.02	1.06	1	
GTCCCA	1.17	1.14	1.17	
CCCACT	1.35	1.38	1.37	
ACAATT	1.32	1.32	1.34	
CTACGT	1.19	1.13	1.16	
TTTTTC	1.14	1.22	1.18	
CGACCA	1.15	1.31	1.22	
CTCGAG	1.31	1.28	1.33	
ATCCTC	1.52	1.48	1.46	
GATGTA	1.27	1.26	1.47	
